PubChem BioAssay AID686943 | Drosophila RNAi Screening Center, 2013
The screen tested about 23,000 reagents; shown is a random part of those with a known target gene and a result. 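Extra replicates exist only for a retested subset of genes; insulin dose and duration not given; both raised and lowered dpERK matter.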 Names joined by + are all predicted targets of the reagent. No sequences are given here. The record does not give: the amount of reagent, the time to read-out.

Aim: 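Fly genes whose loss alters ERK activation after insulin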 (primary screen)
Cells: Drosophila S2R+ haemocyte-like cells expressing YFP-tagged ERK (Rolled)
Knock-down reagent: long dsRNA against Drosophila genes
Challenge: insulin stimulation versus unstimulated cells; dose and duration not given
Measured: 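Antibody staining for doubly phosphorylated ERK divided by ERK-YFP signal, as plate z-scores, in insulin-treated and untreated cells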
Direction: replicate 1, z-score of dpERK with insulin and replicate 2, z-score of dpERK with insulin: higher = more active ERK per ERK-YFP after insulin; replicate 1, z-score of dpERK under basal conditions: higher = more basal active ERK per ERK-YFP; replicate 1, z-score of ERK-YFP with insulin: higher = more YFP-tagged ERK signal

| target gene | dsRNA | replicate 1, z-score of dpERK with insulin | replicate 2, z-score of dpERK with insulin | replicate 1, z-score of dpERK under basal conditions | replicate 1, z-score of ERK-YFP with insulin |
| --- | --- | --- | --- | --- | --- |
| CG18004 | DRSC06705 | 0.56 | 0.02 | -0.79 | -0.37 |
| Tehao | DRSC03449 | 1.13 | 0.49 | 0.08 | -0.57 |
| RIC-3 | DRSC04243 | -0.16 | 0.78 | -0.43 | -0.04 |
| RIC-3 | DRSC04543 | -0.27 | -2.83 | -0.51 | -0.74 |
| Atg14 | DRSC14421 | -0.26 | 0.6 | -0.18 | 0.01 |
| gammaTub37C | DRSC03535 | 0.48 | 0.08 | 0.15 | 0.2 |
| Cpr100A | DRSC14465 | 0.09 | 0.16 | -0.15 | -0.05 |
| CG10591 | DRSC09748 | 0.98 | -0.79 | 0.79 | -0.43 |
| CG18661 | DRSC02690 | 0.09 | -0.47 | -0.35 | 0.63 |
| Dtg | DRSC15998 | 0.69 | -0.21 | 0.79 | 0.61 |
| CG43774 + CG43773 | DRSC00287 | -0.48 | -2.53 | -0.97 | -0.31 |
| CG43774 + CG43773 | DRSC00288 | 1.43 | 0.61 | 0.3 | 0.58 |
| Pura | DRSC08891 | 0 | 0.98 | 0.47 | 0.17 |
| Pura | DRSC10862 | 0.2 | 0.92 | – | 0.17 |
| Pura | DRSC10864 | 0.79 | 0.18 | – | -0.37 |
| Pura | DRSC10865 | 0.15 | 0.48 | 1.62 | -0.13 |
| Pura | DRSC10866 | 0.44 | 0.58 | 1 | -0.2 |
| CG15728 | DRSC19694 | 1.43 | 0.41 | 0.01 | -0.42 |
| CG15728 | DRSC22868 | -0.68 | 0.03 | 0.8 | 1.15 |
| St3 | DRSC04098 | 0.16 | 0.58 | -0.19 | 0.67 |
| St3 | DRSC04505 | -0.39 | -0.14 | 0.15 | 0.45 |
| CG15330 | DRSC18014 | -0.53 | -0.09 | 0.8 | 0.16 |
| CtBP | DRSC16617 | -1.55 | -0.95 | 0.36 | 0.13 |
| CG1827 | DRSC06719 | -0.13 | 0.32 | -0.17 | 0.67 |
| CG43347 | DRSC17982 | 0.05 | 0.28 | 1.75 | -1.22 |
| CG43347 | DRSC18446 | -4.46 | 0.34 | -0.12 | -4.47 |
| CG43347 | DRSC22656 | 0.18 | -0.13 | 4.92 | -3.75 |
| CG43347 | DRSC22682 | -2.8 | -0.21 | -1.21 | 1.05 |
| CG7115 | DRSC02000 | 0.18 | 0.33 | 1.06 | 0.11 |
| Osi11 | DRSC12282 | -0.93 | 0.74 | -0.65 | 1.16 |
| CG13454 | DRSC10001 | -0.5 | -0.32 | -0.24 | 0.72 |
| Mst27D | DRSC00967 | 1.38 | -0.67 | 3.11 | -1.03 |

Sorted by “replicate 1, z-score of dpERK under basal conditions” (highest first): 9 of the entries above.
| target gene | dsRNA | replicate 1, z-score of dpERK with insulin | replicate 2, z-score of dpERK with insulin | replicate 1, z-score of dpERK under basal conditions | replicate 1, z-score of ERK-YFP with insulin |
| --- | --- | --- | --- | --- | --- |
| CG43347 | DRSC17982 | 0.05 | 0.28 | 1.75 | -1.22 |
| CG15728 | DRSC22868 | -0.68 | 0.03 | 0.8 | 1.15 |
| CG15330 | DRSC18014 | -0.53 | -0.09 | 0.8 | 0.16 |
| CtBP | DRSC16617 | -1.55 | -0.95 | 0.36 | 0.13 |
| St3 | DRSC04505 | -0.39 | -0.14 | 0.15 | 0.45 |
| CG15728 | DRSC19694 | 1.43 | 0.41 | 0.01 | -0.42 |
| CG43347 | DRSC18446 | -4.46 | 0.34 | -0.12 | -4.47 |
| CG1827 | DRSC06719 | -0.13 | 0.32 | -0.17 | 0.67 |
| St3 | DRSC04098 | 0.16 | 0.58 | -0.19 | 0.67 |

More entries:
| target gene | dsRNA | replicate 1, z-score of dpERK with insulin | replicate 2, z-score of dpERK with insulin | replicate 1, z-score of dpERK under basal conditions | replicate 1, z-score of ERK-YFP with insulin |
| --- | --- | --- | --- | --- | --- |
| CHES-1-like | DRSC18447 | -0.83 | -0.51 | -1.52 | 0.92 |
| MP1 | DRSC12124 | 0.09 | 1.24 | -0.32 | 0.34 |
| NetA | DRSC20261 | 0.1 | 0.53 | -0.73 | 0.1 |
| Rbp1 | DRSC16817 | 0.38 | 0.55 | 0.64 | -0.48 |
| MED17 | DRSC16889 | 2.12 | 3.76 | 0.96 | -2 |
| CG2750 | DRSC19867 | 0.26 | -0.34 | 0.1 | -0.37 |
| Taf7 | DRSC15445 | -0.43 | 0.8 | -1.64 | 1.36 |
| sunz | DRSC12559 | -0.8 | 0.38 | 1.86 | 0.08 |
| obst-E | DRSC02128 | -0.17 | 0.52 | -0.28 | 0.15 |
| verm | DRSC11038 | 0.26 | 0.94 | 1.6 | 0.34 |
| Rgk2 | DRSC06503 | 0.28 | 0.47 | 0.63 | 0.28 |
| Rgk2 | DRSC21651 | 0.09 | -4.01 | 0 | 0.23 |
| drm | DRSC00277 | -0.18 | 0.33 | 0.06 | 0.51 |
| beta4GalNAcTA | DRSC05944 | 0.35 | 0.41 | 2.77 | 0.49 |
| CG3091 | DRSC18274 | 0 | 1.68 | 2.2 | 0 |
| E(spl)m2-BFM | DRSC16991 | -0.97 | -2.6 | -3.38 | -0.5 |
| Ntl | DRSC03003 | 0.06 | 0.58 | -0.77 | 0.86 |
| CG4363 | DRSC04465 | 0.93 | -0.63 | -0.95 | 0.05 |
| CG13315 | DRSC09986 | -0.65 | -0.11 | 0.13 | 0.63 |
| CG30281 | DRSC04528 | 0.04 | -0.43 | 0.58 | 0.32 |
| Mdr50 | DRSC07467 | 0.07 | 0.14 | 3.3 | 2.3 |
| CG10139 | DRSC05972 | -0.28 | 0.13 | -0.16 | 0.39 |
| CG31109 | DRSC14648 | 0.36 | 0.16 | 0.06 | 0.48 |
| Rh6 | DRSC16823 | 0.27 | -0.56 | -0.53 | -0.53 |
| Obp83g | DRSC12269 | 0.41 | -0.36 | -1.1 | 0.23 |
